# Measured values from the supplement of paper PMC8728848.
# The other results are listed elsewhere or left out.
# B1: CREG (Mus musculus), O88668 (protein)
# chain: MAARAPELARSLLAALLAPALVALLVSPASGRGGRDHGDWDVDRRLPPLPPREDGPRVARFVTHVSDWGSLATISTIKEVRGWPFADIISISDGPPGEGTGEPYMYLSPLQQAVSDLQENPEATLTMSLAQTVYCRNHGFDPQSPLCVHIMMSGTVTKVNKTEEDYARDSLFVRHPEMKHWPSSHNWFFAKLKISRIWVLDYFGGPKVVTPEEYFNVTLQ
# Tests used:
# Experiment in all cases: glycan array binding signal (z-score within array); higher = stronger binding
# Settings in all cases: glycan notation: IUPAC condensed, linker removed
# [1] = molecular target: GlcNAc(b1-3)Gal(b1-3)GalNAc
# Outline: (§1)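 The binding signal is a Z-score computed within each array and averaged over linkers. Arrays of the same protein sequence at different concentrations or buffers were also averaged together. Data originate from 3228 arrays in the Consortium for Functional Glycomics database, kept only where the protein sequence was available.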
# GlcNAc(b1-3)Gal(b1-4)Glc = molecular target: GlcNAc(b1-3)Gal(b1-4)Glc
# Outline: as §1
# [2] = molecular target: GlcNAc(b1-3)Gal(b1-4)GlcNAc
# Outline: as §1
# [3] = molecular target: GlcNAc(b1-3)Gal(b1-4)GlcNAc(b1-3)Gal(b1-4)GlcNAc
# Outline: as §1
# GlcNAc(b1-3)GalNAc = molecular target: GlcNAc(b1-3)GalNAc
# Outline: as §1
# GlcNAc(b1-3)Man = molecular target: GlcNAc(b1-3)Man
# Outline: as §1
# [4] = molecular target: GlcNAc(b1-3)[GlcNAc(b1-4)][GlcNAc(b1-6)]GlcNAc
# Outline: as §1
# [5] = molecular target: GlcNAc(b1-3)[GlcNAc(b1-6)]Gal(b1-4)GlcNAc
# Outline: as §1
# [6] = molecular target: GlcNAc(b1-3)[GlcNAc(b1-6)]GalNAc
# Outline: as §1
# [7] = molecular target: GlcNAc(b1-4)Gal(b1-4)GlcNAc
# Outline: as §1
# GlcNAc(b1-4)GlcNAc = molecular target: GlcNAc(b1-4)GlcNAc
# Outline: as §1
# [8] = molecular target: GlcNAc(b1-4)GlcNAc(b1-4)GlcNAc
# Outline: as §1
# [9] = molecular target: GlcNAc(b1-4)GlcNAc(b1-4)GlcNAc(b1-4)GlcNAc(b1-4)GlcNAc
# Outline: as §1
# [10] = molecular target: GlcNAc(b1-4)GlcNAc(b1-4)GlcNAc(b1-4)GlcNAc(b1-4)GlcNAc(b1-4)GlcNAc
# Outline: as §1
# [11] = molecular target: GlcNAc(b1-4)[GlcNAc(b1-6)]GalNAc
# Outline: as §1
# [12] = molecular target: GlcNAc(b1-6)Gal(b1-4)GlcNAc
# Outline: as §1
# GlcNAc(b1-6)GalNAc = molecular target: GlcNAc(b1-6)GalNAc
# Outline: as §1
# GlcNAc3Prop(b1-4)GlcNAc = molecular target: GlcNAc3Prop(b1-4)GlcNAc
# Outline: as §1
# [13] = molecular target: GlcNAc6S(b1-3)Gal(b1-4)GlcNAc
# Outline: as §1
# Kdn(a2-3)Gal(b1-3)GalNAc = molecular target: Kdn(a2-3)Gal(b1-3)GalNAc
# Outline: as §1
# Kdn(a2-3)Gal(b1-3)GlcNAc = molecular target: Kdn(a2-3)Gal(b1-3)GlcNAc
# Outline: as §1
# Kdn(a2-3)Gal(b1-4)Glc = molecular target: Kdn(a2-3)Gal(b1-4)Glc
# Outline: as §1
# Kdn(a2-3)Gal(b1-4)GlcNAc = molecular target: Kdn(a2-3)Gal(b1-4)GlcNAc
# Outline: as §1
# [14] = molecular target: Kdn(a2-3)Gal(b1-4)[Fuc(a1-3)]GlcNAc
# Outline: as §1
# Kdn(a2-6)Gal(b1-4)GlcNAc = molecular target: Kdn(a2-6)Gal(b1-4)GlcNAc
# Outline: as §1
# [15] = molecular target: Man(a1-2)Man(a1-2)Man(a1-3)Man
# Outline: as §1
# [16] = molecular target: Man(a1-2)Man(a1-2)Man(a1-6)[Man(a1-3)]Man
# Outline: as §1
# Man(a1-2)Man(a1-3)Man = molecular target: Man(a1-2)Man(a1-3)Man
# Outline: as §1
# [17] = molecular target: Man(a1-2)Man(a1-3)[Man(a1-2)Man(a1-6)]Man
# Outline: as §1
# [18] = molecular target: Man(a1-2)Man(a1-3)[Man(a1-2)Man(a1-6)]Man(a1-6)[Man(a1-2)Man(a1-2)Man(a1-3)]Man
# Outline: as §1
# [19] = molecular target: Man(a1-2)Man(a1-3)[Man(a1-2)Man(a1-6)]Man(a1-6)[Man(a1-2)Man(a1-2)Man(a1-3)]Man(b1-4)GlcNAc(b1-4)GlcNAc
# Outline: as §1
# [20] = molecular target: Man(a1-2)Man(a1-3)[Man(a1-6)]Man(a1-6)[Man(a1-2)Man(a1-3)]Man(b1-4)GlcNAc(b1-4)GlcNAc
# Outline: as §1
# [21] = molecular target: Man(a1-2)Man(a1-6)[Man(a1-3)]Man(a1-6)[Man(a1-2)Man(a1-2)Man(a1-3)]Man
# Outline: as §1
# [22] = molecular target: Man(a1-2)Man(a1-6)[Man(a1-3)]Man(a1-6)[Man(a1-2)Man(a1-2)Man(a1-3)]Man(b1-4)GlcNAc(b1-4)GlcNAc
# Outline: as §1
# Man(a1-3)[Man(a1-6)]Man = molecular target: Man(a1-3)[Man(a1-6)]Man
# Outline: as §1
# [23] = molecular target: Man(a1-3)[Man(a1-6)]Man(a1-6)[Man(a1-2)Man(a1-3)]Man(b1-4)GlcNAc(b1-4)GlcNAc
# Outline: as §1
# [24] = molecular target: Man(a1-3)[Man(a1-6)]Man(a1-6)[Man(a1-3)]Man
# Outline: as §1
# [25] = molecular target: Man(a1-3)[Man(a1-6)]Man(a1-6)[Man(a1-3)]Man(b1-4)GlcNAc(b1-4)GlcNAc
# Outline: as §1
# [26] = molecular target: Man(a1-3)[Man(a1-6)]Man(b1-4)GlcNAc(b1-4)GlcNAc
# Outline: as §1
# Man(a1-6)Man = molecular target: Man(a1-6)Man
# Outline: as §1
# Man(b1-4)GlcNAc = molecular target: Man(b1-4)GlcNAc
# Outline: as §1
# Neu5Ac(a2-3)Gal = molecular target: Neu5Ac(a2-3)Gal
# Outline: as §1
# [27] = molecular target: Neu5Ac(a2-3)Gal(b1-3)GalNAc
# Outline: as §1
binder,measurement,setting,value
B1,glycan array binding signal (z-score),[1],3.22
same,glycan array binding signal (z-score),GlcNAc(b1-3)Gal(b1-4)Glc,-0.001
same,glycan array binding signal (z-score),[2],-1.38
same,glycan array binding signal (z-score),[3],-0.848
same,glycan array binding signal (z-score),GlcNAc(b1-3)GalNAc,-0.689
same,glycan array binding signal (z-score),GlcNAc(b1-3)Man,0.612
same,glycan array binding signal (z-score),[4],2.23
same,glycan array binding signal (z-score),[5],-0.627
same,glycan array binding signal (z-score),[6],0.479
same,glycan array binding signal (z-score),[7],0.032
same,glycan array binding signal (z-score),GlcNAc(b1-4)GlcNAc,-0.666
same,glycan array binding signal (z-score),[8],-0.612
same,glycan array binding signal (z-score),[9],-1.53
same,glycan array binding signal (z-score),[10],-1.1
same,glycan array binding signal (z-score),[11],-0.522
same,glycan array binding signal (z-score),[12],-0.224
same,glycan array binding signal (z-score),GlcNAc(b1-6)GalNAc,-0.035
same,glycan array binding signal (z-score),GlcNAc3Prop(b1-4)GlcNAc,-1.19
same,glycan array binding signal (z-score),[13],0.604
same,glycan array binding signal (z-score),Kdn(a2-3)Gal(b1-3)GalNAc,0.66
same,glycan array binding signal (z-score),Kdn(a2-3)Gal(b1-3)GlcNAc,1.82
same,glycan array binding signal (z-score),Kdn(a2-3)Gal(b1-4)Glc,-0.938
same,glycan array binding signal (z-score),Kdn(a2-3)Gal(b1-4)GlcNAc,0.127
same,glycan array binding signal (z-score),[14],0.212
same,glycan array binding signal (z-score),Kdn(a2-6)Gal(b1-4)GlcNAc,0.104
same,glycan array binding signal (z-score),[15],-0.649
same,glycan array binding signal (z-score),[16],0.392
same,glycan array binding signal (z-score),Man(a1-2)Man(a1-3)Man,-0.181
same,glycan array binding signal (z-score),[17],-0.6
same,glycan array binding signal (z-score),[18],-0.856
same,glycan array binding signal (z-score),[19],-0.346
same,glycan array binding signal (z-score),[20],-0.244
same,glycan array binding signal (z-score),[21],-0.44
same,glycan array binding signal (z-score),[22],-0.094
same,glycan array binding signal (z-score),Man(a1-3)[Man(a1-6)]Man,-0.424
same,glycan array binding signal (z-score),[23],-0.242
same,glycan array binding signal (z-score),[24],-1.12
same,glycan array binding signal (z-score),[25],2.08
same,glycan array binding signal (z-score),[26],0.536
same,glycan array binding signal (z-score),Man(a1-6)Man,0.896
same,glycan array binding signal (z-score),Man(b1-4)GlcNAc,-0.224
same,glycan array binding signal (z-score),Neu5Ac(a2-3)Gal,-1.59
same,glycan array binding signal (z-score),[27],-0.014

# Two neighbouring entries out of the list so far:
binder,measurement,setting,value
B1,glycan array binding signal (z-score),Kdn(a2-6)Gal(b1-4)GlcNAc,0.104
same,glycan array binding signal (z-score),[15],-0.649
